Assay results taken from article PMC12440825.
Results are given in words; binding and its absence hold for the method and conditions named. In cells and extracts the contact can be indirect. Some entries that bind do so weakly or less than the wild type. Sequences can lack the tags named with a protein.

B1: GOS1 (endogenous) (protein, UniProt P38736 1-223)
chain: MSSQPSFVTIRGKAISLETQTESLLSKYSTFAQTTSSEQTGQEKKIDKQLEGILGQRQDVIDSLTQICDSNPAISASKLSQLHRHKEILQDHWKSFRNIRSSIQQERNRLNLLFSVKNDIANSTTDAPAPIGDADEYIQNETRRIDQSNNVVDRLISQAWETRSQFHSQSNVLNTANNKVLQTLQRIPGVNQLIMKINTRRKKNAFVLATITTLCILFLFFTW
B2: HA-tagged Sec18 (pYK175, 3×Flag N-terminal tag, HA C-terminal tag) (enzyme, UniProt P18759 1-758)
chain: MFKIPGFGKAAANHTPPDMTNMDTRTRHLKVSNCPNNSYALANVAAVSPNDFPNNIYIIIDNLFVFTTRHSNDIPPGTIGFNGNQRTWGGWSLNQDVQAKAFDLFKYSGKQSYLGSIDIDISFRARGKAVSTVFDQDELAKQFVRCYESQIFSPTQYLIMEFQGHFFDLKIRNVQAIDLGDIEPTSAVATGIETKGILTKQTQINFFKGRDGLVNLKSSNSLRPRSNAVIRPDFKFEDLGVGGLDKEFTKIFRRAFASRIFPPSVIEKLGISHVKGLLLYGPPGTGKTLIARKIGTMLNAKEPKIVNGPEILSKYVGSSEENIRNLFKDAEAEYRAKGEESSLHIIIFDELDSVFKQRGSRGDGTGVGDNVVNQLLAKMDGVDQLNNILVIGMTNRKDLIDSALLRPGRFEVQVEIHLPDEKGRLQIFDIQTKKMRENNMMSDDVNLAELAALTKNFSGAEIEGLVKSASSFAINKTVNIGKGATKLNTKDIAKLKVTREDFLNALNDVTPAFGISEEDLKTCVEGGMMLYSERVNSILKNGARYVRQVRESDKSRLVSLLIHGPAGSGKTALAAEIALKSGFPFIRLISPNELSGMSESAKIAYIDNTFRDAYKSPLNILVIDSLETLVDWVPIGPRFSNNILQMLKVALKRKPPQDRRLLIMTTTSAYSVLQQMDILSCFDNEIAVPNMTNLDELNNVMIESNFLDDAGRVKVINELSRSCPNFNVGIKKTLTNIETARHDEDPVNELVELMTQSA

Target: T1, HA-tagged Sec18 (pYK175, 3×Flag N-terminal tag, HA C-terminal tag) (S. cerevisiae) (UniProt P18759)
T1 sequence: B2 chain
Assay: cross-linking; in vivo XL-MS: spheroplasts of S. cerevisiae S288C expressing tagged Sec18 treated with DSG (5 mM) for 30 min, lysis, magnetic bead anti-HA co-IP, SDS-PAGE bands of crosslinked Sec18 excised, LC-MS/MS; crosslinks graded high, medium or low confidence

Binder	binding
B1	binds
B2	binds
